Drawing on patent US20240201168A1, this text covers binding for 1 molecule.

The target in test [1] is T1, periostin (human) (UniProt Q15063).
T1 sequence: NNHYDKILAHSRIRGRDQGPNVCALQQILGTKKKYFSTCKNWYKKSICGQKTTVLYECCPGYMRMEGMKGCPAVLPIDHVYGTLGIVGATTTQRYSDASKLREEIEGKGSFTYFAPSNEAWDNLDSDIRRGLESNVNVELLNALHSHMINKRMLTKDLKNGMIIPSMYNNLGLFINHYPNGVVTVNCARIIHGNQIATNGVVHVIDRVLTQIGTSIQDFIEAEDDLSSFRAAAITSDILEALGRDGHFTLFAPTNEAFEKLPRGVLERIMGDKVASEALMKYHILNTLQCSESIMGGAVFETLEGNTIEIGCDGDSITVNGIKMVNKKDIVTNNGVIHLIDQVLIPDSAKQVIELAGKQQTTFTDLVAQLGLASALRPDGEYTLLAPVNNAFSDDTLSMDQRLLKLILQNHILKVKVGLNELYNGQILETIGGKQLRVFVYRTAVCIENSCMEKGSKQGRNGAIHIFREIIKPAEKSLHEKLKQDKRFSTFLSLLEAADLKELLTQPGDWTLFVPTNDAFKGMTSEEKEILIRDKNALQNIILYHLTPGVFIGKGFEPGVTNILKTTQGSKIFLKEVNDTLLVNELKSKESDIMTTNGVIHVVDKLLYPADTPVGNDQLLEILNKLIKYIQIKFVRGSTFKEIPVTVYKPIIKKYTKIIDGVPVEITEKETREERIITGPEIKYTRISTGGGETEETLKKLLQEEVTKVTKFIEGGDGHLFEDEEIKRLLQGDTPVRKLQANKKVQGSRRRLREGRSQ
The experiment in a line: HaloTag pull-down of the NINJ2 complex, LC-MS/MS.

The target of test [2] is T1, periostin (human). As to the kind of experiment: HaloTag pull-down from stable NINJ2-HaloTag MKN-74 cells, immunoblotting (co-IP).

No constants are given. Whether binding was seen depends on the method and setting. Binding seen in cells or lysates may run through a third protein. Some entries that bind do so weakly or less than the wild type. Tags and fused reporters may be left off the sequences shown.

B1: NINJ2-HaloTag (NINJ2, nerve injury-induced protein 2; Ninjurin 2, with HaloTag, stably expressed in MKN-74 cells) (protein, human, UniProt Q9NZG7 1-142, looked up, not shown: large carriers)
chain: MESARENIDLQPGSSDPRSQPINLNHYATKKSVAESMLDVALFMSNAMRLKAVLEQGPSSHYYTTLVTLISLSLLLQVVIGVLLVVIARLNLNEVEKQWRLNQLNNAATILVFFTVVINVFITAFGAHKTGFLAARASRNPL
Take B1: the binding result in test [1] and in test [2] was “binds” each time.
